# Assay results from article PMC8384837.
# Residue numbers refer to the chain shown, from its start. Some of the results follow. For some of these results: At the low end of the ranking the order means little.
# Experiments:
# Conditions in all cases: yeast three-hybrid, YBZ-1, SC-Leu-His + 0.5 mM 3-AT, 4 days
# [1] = biological target: T1, PUM1 PUF domain R3-LRC C935L + Q939C (Homo sapiens) (UniProt Q14671)
# T1 sequence: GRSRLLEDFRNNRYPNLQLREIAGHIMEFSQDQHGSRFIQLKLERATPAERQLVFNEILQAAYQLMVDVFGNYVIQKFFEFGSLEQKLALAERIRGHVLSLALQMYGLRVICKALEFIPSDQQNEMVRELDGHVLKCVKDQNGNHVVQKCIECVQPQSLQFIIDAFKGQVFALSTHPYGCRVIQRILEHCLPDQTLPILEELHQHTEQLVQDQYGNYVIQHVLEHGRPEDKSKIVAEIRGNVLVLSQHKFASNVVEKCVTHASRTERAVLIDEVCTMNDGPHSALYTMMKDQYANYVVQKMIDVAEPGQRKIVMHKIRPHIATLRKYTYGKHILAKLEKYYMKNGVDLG
# [2] = biological target: T2, PUM1 PUF domain R3-LRE C935L + Q939E (Homo sapiens) (UniProt Q14671)
# T2 sequence: T1 sequence with C112E
# [3] = biological target: T3, PUM1 PUF domain R3-LRM C935L + Q939M (Homo sapiens) (UniProt Q14671)
# T3 sequence: T1 sequence with C112M
# [4] = biological target: T4, PUM1 PUF domain R3-LSE C935L + R936S + Q939E (Homo sapiens) (UniProt Q14671)
# T4 sequence: T1 sequence with R109S, C112E
# [5] = biological target: T5, PUM1 PUF domain R3-MCG C935M + R936C + Q939G (Homo sapiens) (UniProt Q14671)
# T5 sequence: T1 sequence with L108M, R109C, C112G
# [6] = biological target: T6, PUM1 PUF domain R3-NAL C935N + R936A + Q939L (Homo sapiens) (UniProt Q14671)
# T6 sequence: T1 sequence with L108N, R109A, C112L
# [7] = biological target: T7, PUM1 PUF domain R3-NSL C935N + R936S + Q939L (Homo sapiens) (UniProt Q14671)
# T7 sequence: T1 sequence with L108N, R109S, C112L
# [8] = biological target: T8, PUM1 PUF domain R3-PWW C935P + R936W + Q939W (Homo sapiens) (UniProt Q14671)
# T8 sequence: T1 sequence with L108P, R109W, C112W
# [9] = biological target: T9, PUM1 PUF domain R3-QCD C935Q + R936C + Q939D (UniProt Q14671)
# T9 sequence: T1 sequence with L108Q, R109C, C112D
# [10] = biological target: T10, PUM1 PUF domain R3-SAE C935S + R936A + Q939E (UniProt Q14671)
# T10 sequence: T1 sequence with L108S, R109A, C112E
# [11] = biological target: T11, PUM1 PUF domain R3-SCD C935S + R936C + Q939D (Homo sapiens) (UniProt Q14671)
# T11 sequence: T1 sequence with L108S, R109C, C112D
# [12] = biological target: T12, PUM1 PUF domain R3-SGE C935S + R936G + Q939E (UniProt Q14671)
# T12 sequence: T1 sequence with L108S, R109G, C112E
# [13] = biological target: T13, PUM1 PUF domain R3-SME C935S + R936M + Q939E (UniProt Q14671)
# T13 sequence: T1 sequence with L108S, R109M, C112E
# [14] = biological target: T14, PUM1 PUF domain R3-SPW C935S + R936P + Q939W (Homo sapiens) (UniProt Q14671)
# T14 sequence: T1 sequence with L108S, R109P, C112W
# [15] = biological target: T15, PUM1 PUF domain R3-SRG C935S + Q939G (Homo sapiens) (UniProt Q14671)
# T15 sequence: T1 sequence with L108S, C112G
# [16] = biological target: T16, PUM1 PUF domain R3-SRW C935S + Q939W (Homo sapiens) (UniProt Q14671)
# T16 sequence: T1 sequence with L108S, C112W
# [17] = biological target: T17, PUM1 PUF domain R3-SSE C935S + R936S + Q939E (UniProt Q14671)
# T17 sequence: T1 sequence with L108S, R109S, C112E
# [18] = biological target: T18, PUM1 PUF domain R3-SSQ C935S + R936S (Homo sapiens) (UniProt Q14671)
# T18 sequence: T1 sequence with L108S, R109S, C112Q
# [19] = biological target: T19, PUM1 PUF domain R3-STD C935S + R936T + Q939D (UniProt Q14671)
# T19 sequence: T1 sequence with L108S, R109T, C112D
# [20] = biological target: T20, PUM1 PUF domain R3-SVE C935S + R936V + Q939E (UniProt Q14671)
# T20 sequence: T1 sequence with L108S, R109V, C112E
# [21] = biological target: T21, PUM1 PUF domain R3-TCE C935T + R936C + Q939E (UniProt Q14671)
# T21 sequence: T1 sequence with L108T, R109C, C112E
# [22] = biological target: T22, PUM1 PUF domain R3-TGQ C935T + R936G (UniProt Q14671)
# T22 sequence: T1 sequence with L108T, R109G, C112Q
# [23] = biological target: T23, PUM1 PUF domain R3-THE R4-TFR C935T + R936H + Q939E + N971T + H972F + Q975R (UniProt Q14671)
# T23 sequence: T1 sequence with L108T, R109H, C112E, N144T, H145F, Q148R
# [24] = biological target: T24, PUM1 PUF domain R3-TME C935T + R936M + Q939E (UniProt Q14671)
# T24 sequence: T1 sequence with L108T, R109M, C112E
# [25] = biological target: T25, PUM1 PUF domain R3-TQE C935T + R936Q + Q939E (UniProt Q14671)
# T25 sequence: T1 sequence with L108T, R109Q, C112E
# [26] = biological target: T26, PUM1 PUF domain R3-TRG C935T + Q939G (Homo sapiens) (UniProt Q14671)
# T26 sequence: T1 sequence with L108T, C112G
# [27] = biological target: T27, PUM1 PUF domain R3-TSE C935T + R936S + Q939E (UniProt Q14671)
# T27 sequence: T1 sequence with L108T, R109S, C112E
# [28] = biological target: T28, PUM1 PUF domain R3-TTE C935T + R936T + Q939E (UniProt Q14671)
# T28 sequence: T1 sequence with L108T, R109T, C112E
# [29] = biological target: T29, PUM1 PUF domain R3-TVE C935T + R936V + Q939E (UniProt Q14671)
# T29 sequence: T1 sequence with L108T, R109V, C112E
# [30] = biological target: T30, PUM1 PUF domain R3-VCE C935V + R936C + Q939E (Homo sapiens) (UniProt Q14671)
# T30 sequence: T1 sequence with L108V, R109C, C112E
# [31] = biological target: T31, PUM1 PUF domain R3-VHW C935V + R936H + Q939W (Homo sapiens) (UniProt Q14671)
# T31 sequence: T1 sequence with L108V, R109H, C112W
sequence,measurement,setting,value
GGCUAGAACUAGUGGAUCCCCCGGCGCCCGGCGGCUCGAGCCCGGGUAAGUGUAAUUAGUCUGCAUGCCGCCGGGCGCCAUGCCUGCAGGUCGACUCUAGAAAACAUG,binding signal (log2 enrichment (interaction score)),[1],0.32
same,binding signal (log2 enrichment (interaction score)),[2],-0.76
same,binding signal (log2 enrichment (interaction score)),[3],-0
same,binding signal (log2 enrichment (interaction score)),[4],0.38
same,binding signal (log2 enrichment (interaction score)),[5],-0.58
same,binding signal (log2 enrichment (interaction score)),[6],-0.93
same,binding signal (log2 enrichment (interaction score)),[7],-0.01
same,binding signal (log2 enrichment (interaction score)),[8],-3.07
same,binding signal (log2 enrichment (interaction score)),[9],< -6.61
same,binding signal (log2 enrichment (interaction score)),[10],< -8.12
same,binding signal (log2 enrichment (interaction score)),[11],-1.25
same,binding signal (log2 enrichment (interaction score)),[12],-5.61
same,binding signal (log2 enrichment (interaction score)),[13],< -8.15
same,binding signal (log2 enrichment (interaction score)),[14],-0.07
same,binding signal (log2 enrichment (interaction score)),[15],-0.21
same,binding signal (log2 enrichment (interaction score)),[16],-1.11
same,binding signal (log2 enrichment (interaction score)),[17],-2.61
same,binding signal (log2 enrichment (interaction score)),[18],-0.16
same,binding signal (log2 enrichment (interaction score)),[19],-5.34
same,binding signal (log2 enrichment (interaction score)),[20],< -7.9
same,binding signal (log2 enrichment (interaction score)),[21],< -7.24
same,binding signal (log2 enrichment (interaction score)),[22],< -8.28
same,binding signal (log2 enrichment (interaction score)),[23],-4.04
same,binding signal (log2 enrichment (interaction score)),[24],< -6.56
same,binding signal (log2 enrichment (interaction score)),[25],< -7.55
same,binding signal (log2 enrichment (interaction score)),[26],-0.34
same,binding signal (log2 enrichment (interaction score)),[27],< -8.61
same,binding signal (log2 enrichment (interaction score)),[28],< -7.54
same,binding signal (log2 enrichment (interaction score)),[29],< -8.19
same,binding signal (log2 enrichment (interaction score)),[30],-3.59
same,binding signal (log2 enrichment (interaction score)),[31],0.09

# Two entries from above, with bars between the fields:
sequence | measurement | setting | value
GGCUAGAACUAGUGGAUCCCCCGGCGCCCGGCGGCUCGAGCCCGGGUAAGUGUAAUUAGUCUGCAUGCCGCCGGGCGCCAUGCCUGCAGGUCGACUCUAGAAAACAUG | binding signal (log2 enrichment (interaction score)) | [20] | < -7.9
same | binding signal (log2 enrichment (interaction score)) | [21] | < -7.24
